Test results reported in PMC4887207, “Viral hijacking of a replicative helicase loader and its implications for helicase loading control and phage replication” (eLife, 2016).
Results are given in words; binding and its absence hold for the method and conditions named. For some assays here: A result given as binding can be weak or reduced; the word gives no strength.

What was measured:
[1] = biological target: T1, SaDnaI^AAA+ (residues 136-306) (Staphylococcus aureus) (UniProt Q3ZUA6); assay: fluorescence polarisation; anisotropy-based competition; 20 nM labeled 77ORF104 and 2 µM SaDnaI^AAA+, unlabeled 77ORF104 or mutant titrated; 50 mM HEPES-KOH pH 7.5, 125 mM KCl, 10% glycerol, 5 mM MgCl2, 1 mM DTT; apparent; both purified
T1 sequence: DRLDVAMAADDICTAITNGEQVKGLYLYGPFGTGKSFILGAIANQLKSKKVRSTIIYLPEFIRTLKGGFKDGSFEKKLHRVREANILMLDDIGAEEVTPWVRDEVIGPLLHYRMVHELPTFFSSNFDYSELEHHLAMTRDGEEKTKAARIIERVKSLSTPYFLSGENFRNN

[2] = biological target: T2, SeMet-SaDnaI^AAA+ (Staphylococcus aureus) (UniProt Q3ZUA6); assay: crystal structure; ADP•BeF3-bound SaDnaI^AAA+•77ORF104 complex, SeMet SAD, 1.9 Å; complex formed with two-fold excess of 77ORF104; both purified
T2 sequence (chain, selenomethionine labeled): T1 sequence

[3] = biological target: T3, full-length Staphylococcus aureus DnaI (Staphylococcus aureus) (UniProt Q3ZUA6); assay: limited trypsin proteolysis; SaDnaI alone or with 77ORF104, trypsin 30 min at 25°C; 500 mM KCl, 50 mM HEPES-KOH pH 7.5, 10 mM MgCl2, 10% glycerol; SDS-PAGE; both purified
T3 sequence: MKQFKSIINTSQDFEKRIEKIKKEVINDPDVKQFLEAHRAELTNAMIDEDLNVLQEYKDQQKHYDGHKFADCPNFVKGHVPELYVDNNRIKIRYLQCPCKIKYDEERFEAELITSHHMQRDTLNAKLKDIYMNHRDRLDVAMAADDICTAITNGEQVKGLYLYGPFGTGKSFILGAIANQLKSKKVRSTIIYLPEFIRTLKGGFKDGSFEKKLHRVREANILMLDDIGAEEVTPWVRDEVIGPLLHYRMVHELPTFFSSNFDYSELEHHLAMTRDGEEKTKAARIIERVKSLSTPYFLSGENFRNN

[4] = biological target: His6MBP-tagged phage loader 77ORF013 (Staphylococcus bacteriophage 77); assay: pull-down; amylose pull-down, His6MBP-tagged protein as bait (10 µM), untagged protein as prey (20 µM); without ATP or nucleotide where stated (Figures 2C, 4C), ATP not told for the other panels; 20 mM HEPES-KOH pH 7.5, 100 mM NaCl, 5 mM MgCl2, 10% glycerol, 1 mM DTT, 25°C; SDS-PAGE; both purified
[5] = biological target: His6MBP-77ORF104 (Staphylococcus bacteriophage 77); assay: as above
[6] = biological target: His6MBP-77ORF104 (Staphylococcus bacteriophage 77); assay: condition: 10 µM His6MBP-tagged and 20 µM untagged protein; pull-down; amylose pull-down, His6MBP-tagged protein as bait (10 µM), untagged protein as prey (20 µM); without ATP or nucleotide where stated (Figures 2C, 4C), ATP not told for the other panels; 20 mM HEPES-KOH pH 7.5, 100 mM NaCl, 5 mM MgCl2, 10% glycerol, 1 mM DTT, 25°C; SDS-PAGE; both purified

## 77ORF104^K39E (Staphylococcus bacteriophage 77)
[1]
  binding: binds

## 77ORF104^Δ47–52 (Staphylococcus bacteriophage 77) (domain or fragment)
[1]
  binding: no binding

## phage 77 ORF104 protein (Staphylococcus bacteriophage 77)
[2]
  binding: binds
[3]
  binding: binds

B1: SaDnaC replicative helicase (natural protein, Staphylococcus aureus, UniProt Q9AQH7 1-466, looked up)
chain: MDRMYEQNQMPHNNEAEQSVLGSIIIDPELINTTQEVLLPESFYRGAHQHIFRAMMHLNEDNKEIDVVTLMDQLSTEGTLNEAGGPQYLAELSTNVPTTRNVQYYTDIVSKHALKRRLIQTADSIANDGYNDELELDAILSDAERRILELSSSRESDGFKDIRDVLGQVYETAEELDQNSGQTPGIPTGYRDLDQMTAGFNRNDLIILAARPSVGKTAFALNIAQKVATHEDMYTVGIFSLEMGADQLATRMICSSGNVDSNRLRTGTMTEEDWSRFTIAVGKLSRTKIFIDDTPGIRINDLRSKCRRLKQEHGLDMIVIDYLQLIQGSGSRASDNRQQEVSEISRTLKALARELKCPVIALSQLSRGVEQRQDKRPMMSDIRESGSIEQDADIVAFLYRDDYYNRGGDEDDDDDGGFEPQTNDENGEIEIIIAKQRNGPTGTVKLHFMKQYNKFTDIDYAHADMM
notes: Staphylococcus aureus replicative helicase DnaC (a DnaB-family helicase); also called S. aureus DnaC replicative helicase; host helicase; not shown: His6, N-terminal, cleaved; MBP, N-terminal, cleaved
[4]
  binding: binds

B2: SaDnaI^CTD (117-306) (domain or fragment, UniProt Q3ZUA6 117-306)
chain: HMQRDTLNAKLKDIYMNHRDRLDVAMAADDICTAITNGEQVKGLYLYGPFGTGKSFILGAIANQLKSKKVRSTIIYLPEFIRTLKGGFKDGSFEKKLHRVREANILMLDDIGAEEVTPWVRDEVIGPLLHYRMVHELPTFFSSNFDYSELEHHLAMTRDGEEKTKAARIIERVKSLSTPYFLSGENFRNN
[5]
  binding: binds

B3: SaDnaI^AAA+ (residues 136-306) (domain or fragment, UniProt Q3ZUA6 136-306)
chain: T1 sequence
[5]
  binding: binds

B4: SaDnaI^NTD (residues 1-117) (domain or fragment, UniProt Q3ZUA6 1-117)
chain: MKQFKSIINTSQDFEKRIEKIKKEVINDPDVKQFLEAHRAELTNAMIDEDLNVLQEYKDQQKHYDGHKFADCPNFVKGHVPELYVDNNRIKIRYLQCPCKIKYDEERFEAELITSHH
[6]
  binding: no binding
